Assay results as given in publication PMC4066752.
No constants are given. Whether binding was seen depends on the method and setting. For part of these data: Binding seen in cells or lysates may run through a third protein. Some results given as binding are weak or reduced against the parent protein; the word gives no strength.

The chains behind the UniProt entries cited, without tags or fusion partners.
UniProt P01106: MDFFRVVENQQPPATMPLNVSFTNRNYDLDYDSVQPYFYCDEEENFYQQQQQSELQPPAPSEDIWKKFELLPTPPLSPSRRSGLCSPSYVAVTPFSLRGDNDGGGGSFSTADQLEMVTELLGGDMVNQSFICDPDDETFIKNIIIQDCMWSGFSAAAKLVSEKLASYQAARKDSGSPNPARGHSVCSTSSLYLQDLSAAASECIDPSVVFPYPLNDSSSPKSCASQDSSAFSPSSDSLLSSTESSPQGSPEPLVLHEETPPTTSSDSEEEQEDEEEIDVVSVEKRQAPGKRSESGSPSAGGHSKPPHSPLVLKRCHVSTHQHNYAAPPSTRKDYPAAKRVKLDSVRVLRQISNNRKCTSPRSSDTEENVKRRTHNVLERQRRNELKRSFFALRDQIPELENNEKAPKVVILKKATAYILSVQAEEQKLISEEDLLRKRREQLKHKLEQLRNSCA
UniProt P19338: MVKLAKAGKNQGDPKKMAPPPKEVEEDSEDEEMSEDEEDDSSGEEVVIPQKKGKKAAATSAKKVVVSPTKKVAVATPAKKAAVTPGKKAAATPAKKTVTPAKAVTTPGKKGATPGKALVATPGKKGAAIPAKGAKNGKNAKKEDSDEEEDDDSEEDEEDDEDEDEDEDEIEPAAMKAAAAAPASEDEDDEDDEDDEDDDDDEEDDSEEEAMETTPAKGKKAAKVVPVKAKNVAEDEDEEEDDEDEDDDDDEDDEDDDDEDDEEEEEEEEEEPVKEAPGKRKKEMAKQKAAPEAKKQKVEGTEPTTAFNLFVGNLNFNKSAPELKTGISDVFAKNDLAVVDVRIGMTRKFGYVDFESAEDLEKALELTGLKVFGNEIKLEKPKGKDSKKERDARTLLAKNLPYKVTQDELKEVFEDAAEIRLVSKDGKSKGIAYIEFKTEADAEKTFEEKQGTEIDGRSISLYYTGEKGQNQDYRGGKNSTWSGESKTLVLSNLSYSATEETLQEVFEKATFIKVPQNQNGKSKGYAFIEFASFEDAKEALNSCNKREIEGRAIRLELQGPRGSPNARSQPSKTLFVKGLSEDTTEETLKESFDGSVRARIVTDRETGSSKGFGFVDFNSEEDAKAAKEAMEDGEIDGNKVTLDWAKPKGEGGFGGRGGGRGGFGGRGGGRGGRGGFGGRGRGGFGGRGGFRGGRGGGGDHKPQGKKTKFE
UniProt P61244: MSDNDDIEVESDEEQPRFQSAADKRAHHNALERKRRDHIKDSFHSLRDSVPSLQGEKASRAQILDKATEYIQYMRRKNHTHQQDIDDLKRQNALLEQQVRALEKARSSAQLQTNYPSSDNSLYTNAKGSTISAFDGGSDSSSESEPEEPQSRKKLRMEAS
UniProt Q9UBL3: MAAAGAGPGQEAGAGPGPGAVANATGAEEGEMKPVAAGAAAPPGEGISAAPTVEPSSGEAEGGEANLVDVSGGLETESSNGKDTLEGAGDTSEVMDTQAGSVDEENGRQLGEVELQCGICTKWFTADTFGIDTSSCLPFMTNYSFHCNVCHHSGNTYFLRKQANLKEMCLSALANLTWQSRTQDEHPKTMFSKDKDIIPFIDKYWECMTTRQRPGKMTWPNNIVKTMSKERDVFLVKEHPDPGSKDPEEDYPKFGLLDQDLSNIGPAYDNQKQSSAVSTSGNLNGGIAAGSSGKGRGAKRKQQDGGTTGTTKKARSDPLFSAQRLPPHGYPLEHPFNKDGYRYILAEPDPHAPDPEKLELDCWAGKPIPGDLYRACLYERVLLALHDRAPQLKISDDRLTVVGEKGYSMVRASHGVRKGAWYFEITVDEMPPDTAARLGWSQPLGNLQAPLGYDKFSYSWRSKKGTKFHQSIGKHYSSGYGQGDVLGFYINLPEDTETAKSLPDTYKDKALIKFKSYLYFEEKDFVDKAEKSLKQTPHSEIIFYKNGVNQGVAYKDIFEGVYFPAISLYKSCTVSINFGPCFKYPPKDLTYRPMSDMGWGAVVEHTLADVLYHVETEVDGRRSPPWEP

Columns and labels:
[1] = target: MYC (human (endogenous in U2OS, Jurkat T, HEK293)) (UniProt P01106); assay: proximity ligation; in situ PLA (DuolinkII) in U2OS cells; mAb 4C5 for ASH2L and pAb N262 for MYC; one primary antibody alone as negative control
[2] = target: nucleolin (human (endogenous in U2OS)) (UniProt P19338); assay: co-IP; endogenous proteins; whole-cell lysates in F-buffer (10 mM Tris-HCl pH 7.05, 50 mM NaCl, 1% Triton X-100) of U2OS, Jurkat T or HEK293 cells; IP with MYC- (mAb 4H3), MAX- or ASH2L-specific (mAb 4C5) antibodies, HA-tag antibodies as control; western blot
[3] = target: MYC (human (endogenous in U2OS, Jurkat T, HEK293)) (UniProt P01106); assay: as above
[4] = target: MAX (human (endogenous in Jurkat T, HEK293)) (UniProt P61244); assay: as above
[5] = target: MYC (tetracycline-regulated transgene in P493-6 B cells) (UniProt P01106); assay: re-ChIP (sequential chromatin immunoprecipitation); P493-6 B cells with or without MYC induction, 1% formaldehyde cross-linked, sheared chromatin; first IP ASH2L or MYC, release with 1% SDS and 10 mM DTT, second IP MYC, ASH2L, CBP/p300 or IgG; qPCR of CCND2, ODC and NCL promoter regions
[6] = target: ASH2L (human (endogenous in U2OS, Jurkat T, HEK293, P493-6)) (UniProt Q9UBL3); assay: co-IP; endogenous proteins; whole-cell lysates in F-buffer (10 mM Tris-HCl pH 7.05, 50 mM NaCl, 1% Triton X-100) of U2OS, Jurkat T or HEK293 cells; IP with MYC- (mAb 4H3), MAX- or ASH2L-specific (mAb 4C5) antibodies, HA-tag antibodies as control; western blot

Row | binding [1] | binding [2] | binding [3] | binding [4] | binding [5] | binding [6] | Substance
1 | binds | binds | binds | binds | binds |  | ASH2L (from UniProt Q9UBL3 1-628)
2 |  |  |  |  |  | binds | MYC (from UniProt P01106 1-454)
